The supplement of paper PMC9233669
Variants at the background level are over-represented here.

Tests used:
biotinyl-Trp-oxazolone = assay: self-aminoacylation, catalytic enhancement (BWO) (fold over background); higher = more active; k-Seq, kA / k0A0; sequences stand for … in GGGAAUGGAUCCACAUCUACGAAUUC…UUCACUGCAGACUUGACGAAGCUG
Procedure, shortened: (§1)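 Working in 50 μL HEPES/NaCl/KCl/MgCl2/CaCl2 buffer with 5% acetonitrile at pH 6.9–7.0, mutagenized RNA pools (0.43 μM; 21-nt variable region) were reacted with 2–1250 μM of each biotinyl-aminoacyl-oxazolone for 90 minutes at room temperature. Streptavidin capture followed, with quantification by triplicate qPCR and Illumina sequencing. Catalytic enhancement is reported as median kA over the uncatalyzed rate, the low-activity peak of a bimodal Gaussian fit to the data.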

biotinyl-Val-oxazolone = assay: self-aminoacylation, catalytic enhancement (BVO) (fold over background); higher = more active; k-Seq, kA / k0A0; sequences stand for … in GGGAAUGGAUCCACAUCUACGAAUUC…UUCACUGCAGACUUGACGAAGCUG
Procedure, shortened: as §1

biotinyl-Met-oxazolone = assay: self-aminoacylation, catalytic enhancement (BMO) (fold over background); higher = more active; k-Seq, kA / k0A0; sequences stand for … in GGGAAUGGAUCCACAUCUACGAAUUC…UUCACUGCAGACUUGACGAAGCUG
Procedure, shortened: as §1

biotinyl-Leu-oxazolone = assay: self-aminoacylation, catalytic enhancement (BLO) (fold over background); higher = more active; k-Seq, kA / k0A0; sequences stand for … in GGGAAUGGAUCCACAUCUACGAAUUC…UUCACUGCAGACUUGACGAAGCUG
Procedure, shortened: as §1

biotinyl-Ile-oxazolone = assay: self-aminoacylation, catalytic enhancement (BIO) (fold over background); higher = more active; k-Seq, kA / k0A0; sequences stand for … in GGGAAUGGAUCCACAUCUACGAAUUC…UUCACUGCAGACUUGACGAAGCUG
Procedure, shortened: as §1

| Sequence | self-aminoacylation (biotinyl-Trp-oxazolone) | self-aminoacylation (biotinyl-Val-oxazolone) | self-aminoacylation (biotinyl-Met-oxazolone) | self-aminoacylation (biotinyl-Leu-oxazolone) | self-aminoacylation (biotinyl-Ile-oxazolone) |
| --- | --- | --- | --- | --- | --- |
| AACUUUGCUAAUACUCGCAAG [Fam3.1 aminoacylation ribozyme variant] | 1.26 | 1.35 | 1.44 | 1.73 |  |
| AAGCCUGCUAAUAGUCGCAAG [Fam3.1 aminoacylation ribozyme variant] | 11.1 | 1.77 | 1.61 | 1.64 | 1.86 |
| AAGCUUACUAAUAGUCGCAAG [Fam3.1 aminoacylation ribozyme variant] | 1.97 | 1.69 | 1.54 | 1.33 | 1.63 |
| AAGCUUGCUAACAGUCGCAAG [Fam3.1 aminoacylation ribozyme variant] | 1.39 | 1.73 |  |  | 1.83 |
| AAGGUAGCUAAUAGUCGCAAG [Fam3.1 aminoacylation ribozyme variant] | 1.45 | 1.57 | 1.31 | 1.53 | 1.49 |
| AAGGUUGCUAAUAGUCGCCAG [Fam3.1 aminoacylation ribozyme variant] | 1.61 | 1.25 | 1.46 | 1.04 | 1.6 |
| AAGGUUGCUUAUAGUCGCAAG [Fam3.1 aminoacylation ribozyme variant] | 1.67 | 1.69 | 1.28 | 1.43 | 1.71 |
| AAGUAUGAUAAUAGUCGCAAG [Fam3.1 aminoacylation ribozyme variant] | 1.2 | 1.28 | 1.13 | 1.1 | 1.22 |
| AAGUCUCCUAAUAGUCGCAAG [Fam3.1 aminoacylation ribozyme variant] | 1.13 | 1.34 | 1.31 | 1.73 | 1.39 |
| AAGUCUGCUAUUAGUCGCAAG [Fam3.1 aminoacylation ribozyme variant] | 1.27 | 1.07 | 1.41 | 1.69 | 1.03 |
| AAGUUAGCUAAUAGUCACAAG [Fam3.1 aminoacylation ribozyme variant] | 1.59 | 1.38 | 1.48 | 1.16 | 1.55 |
| AAGUUAGCUAAUAGUCGCACG [Fam3.1 aminoacylation ribozyme variant] | 1.14 | 1.54 | 1.58 | 1.43 | 1.43 |
| AAGUUCGCUAAUAGUCGCACG [Fam3.1 aminoacylation ribozyme variant] | 1.64 | 1.74 | 1.77 |  |  |
| AAGUUGGCUAAUAGUCGCUAG [Fam3.1 aminoacylation ribozyme variant] | 1 | 1.22 | 1.35 | 1.22 | 1.43 |
| AAGUUUACUAAUAGUCGUAAG [Fam3.1 aminoacylation ribozyme variant] | 1.12 | 1.11 | 1.16 | 0.974 | 1.1 |
| AAGUUUCCUAAUAGUCGCCAG [Fam3.1 aminoacylation ribozyme variant] | 1.61 | 1.52 | 1.49 | 1.74 | 1.72 |
| AAGUUUGCCAAUAGUCGCAAA [Fam3.1 aminoacylation ribozyme variant] | 1.79 | 1.88 |  | 1.64 | 1.97 |
| AAGUUUGCGAAUAGUCGCAAU [Fam3.1 aminoacylation ribozyme variant] | 1.77 | 1.61 |  | 1.98 | 1.77 |
| AAGUUUGCUAAAAGUCGCAUG [Fam3.1 aminoacylation ribozyme variant] | 1.06 | 1.13 | 0.966 | 1.07 | 0.96 |
| AAGUUUGCUAAUACUCGCCAG [Fam3.1 aminoacylation ribozyme variant] | 0.773 | 0.836 | 0.629 | 0.655 | 0.916 |
| AAGUUUGCUAAUAGUCGCAAA [Fam3.1 aminoacylation ribozyme variant] | 1.61 | 1.39 | 1.48 | 1.32 | 1.6 |
| AAGUUUGCUAAUCGUCGCAAG [Fam3.1 aminoacylation ribozyme variant] | 1.49 | 0.877 | 0.9 | 0.789 | 0.92 |
| AAGUUUGCUAAUGGCCGCAAG [Fam3.1 aminoacylation ribozyme variant] | 1.35 | 1.46 | 1.3 | 1.24 | 1.27 |
| AAGUUUGCUAAUUGUCGCAAU [Fam3.1 aminoacylation ribozyme variant] | 1.27 | 1.51 | 1.82 | 1.81 | 1.65 |
| AAGUUUGCUCACAGUCGCAAG [Fam3.1 aminoacylation ribozyme variant] | 1.73 | 0.889 | 0.718 | 0.91 | 0.815 |
| AAGUUUGUUAAUAGUCGCAAG [Fam3.1 aminoacylation ribozyme variant] | 1.27 | 1.14 | 1.16 | 1.15 | 1.27 |
